In patent EP0188538B1, “TRANSDERMAL DELIVERY OF AZATADINE” (priority 1984, dated 1986):
Where a name gives a salt, the structure may show the parent alone.

Test system: rabbits with intact skin
Experiment: Screening of antihistamines for dermal irritation (24/72 hour screen, Draize grading)
Settings: 24/72 hour dermal irritation screen in rabbits with intact skin; formulation strength as given in the label

Structure (SMILES): CN(C)CCOC(c1ccccc1)c1ccccc1 [Diphenhydramine HCl]
- Rabbit Dermal Irritation: (+)
